# Experimental data as given in PubChem BioAssay AID504834 (National Center for Advancing Translational Sciences (NCATS), 2011).
# In all, about 320,000 compounds went through this assay and about 22,000 (6.9%) were called active. The inconclusive results got no clear call from the source; some entries with a clear call stand among them for comparison. Calls come from the whole dose curve; as a rule, active = well fitted inhibition curve with a large enough effect; inconclusive = small, poorly fitted or top-dose-only effect, or another doubt; inactive = no such curve, though single readings can be large or run the other way. Potencies of inconclusive entries are doubtful fits and often do not repeat.
# Assay: Primary qHTS for delayed death inhibitors of the malarial parasite plastid, 96 hour incubation
# Conditions: P. falciparum luciferase reporter growth; series mostly up to 28.7 µM; activity change, negative = inhibition: at the top concentration
# Method in brief: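 Erythrocytes infected with luciferase-expressing P. falciparum were dispensed at 2% hematocrit and 0.05% parasitemia (final), then incubated with compounds 96 hours at 37 C in 5% CO2. Luminescence after detection reagent addition reported growth.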
# % is set by controls: 0 for no effect and ±100 for the full control effect; potency is the fitted concentration of half-maximal effect.
Structure (SMILES),"activity change, negative = inhibition",Potency
O=C(O)C1C2C=CC(C2)C1C(=O)NCCc1cccc(Cl)c1 (stereo not drawn),inactive: 71.5%,–
Cc1c(OCC(=O)N[C@H](C(=O)O)c2ccccc2)ccc2c3c(c(=O)oc12)CCCC3,inactive: 71.8%,–
COc1ccc(C(=O)C[n+]2cc(-c3ccc(OC)cc3)n3c2CCCC3)cc1,–,active: 1.47 µM
O=C(NNC(=O)c1ccccc1O)c1ccc(S(=O)(=O)Nc2ccccc2F)cc1,inactive: -8.15%,–
COc1ccc(OC)c(CCNC(=O)CCn2nc(C)c3c(C)n(-c4ccccc4)nc3c2=O)c1,–,"inconclusive: 10.4 µM [inhibitor, single point]"
Cc1ccc(N2C(=O)CC(c3ccsc3)C3=C2CC(C)(C)CC3=O)cc1 (stereo not drawn),–,"inconclusive: 10.4 µM [inhibitor, partial curve, poor fit]"
Cc1ccc(N2CCN(S(=O)(=O)c3c(C)nc4scc(C)n4c3=O)CC2)c(C)c1,–,"inconclusive: 18.5 µM [inhibitor, single point]"
Cc1ccc(N=C2NC(=O)/C(=C\c3ccco3)S2)cc1,–,"inconclusive: 13.1 µM [inhibitor, partial curve]"
O=c1[nH]c(N2CCOCC2)nc2c1CCCC2,–,"inconclusive: 0.415 µM [inhibitor, full curve]"
O=C(Cc1ccc(S(=O)(=O)N2CCOCC2)s1)Nc1ccc(S(=O)(=O)N2CCCCC2)cc1,–,"inconclusive: 4.65 µM [inhibitor, partial curve, poor fit]"
CCC[C@@H]1C[C@@]1(CCC)[C@@H](NP(=O)(c1ccccc1)c1ccccc1)c1ccc(C(=O)OC)cc1,–,"inconclusive: 4.65 µM [inhibitor, partial curve, poor fit]"
COc1cc2c(cc1OC)C(c1ccccc1)N(C(=O)c1cccc(S(C)(=O)=O)c1)CC2 (stereo not drawn),–,"inconclusive: 6.57 µM [inhibitor, partial curve]"
Cc1ccc(/C=N/N2CCN(Cc3ccc(Cl)cc3)CC2)o1,–,"inconclusive: 14.7 µM [inhibitor, single point]"
Cc1cccc(C(=O)NNC(=O)c2ccc(S(=O)(=O)N3CCOCC3)cc2)c1,–,"inconclusive: 10.4 µM [inhibitor, single point]"
C[C@@H]1C(=O)O[C@H]2[C@H](O)[C@@]34[C@H]5C[C@@H](C(C)(C)C)[C@]36[C@@H](OC(=O)[C@@H]6O)O[C@@]4(C(=O)O5)[C@@]12O,inactive: 21.4%,–
COc1cc(S(=O)(=O)N(Cc2ccccc2)CC2CCCO2)ccc1-n1cnnn1 (stereo not drawn),inactive: -2.09%,–
O=C(NCC(c1cccnc1)N1CCN(c2ccc(F)cc2)CC1)c1cccc(Cl)c1 (stereo not drawn),inactive: 0.736%,–
CC(C)c1ccc(-c2noc(C3CCCN(C(=O)c4ccc(F)cc4F)C3)n2)cc1 (stereo not drawn),inactive: 51.1%,–

# A second format for 2 compounds above.
Structure (SMILES)	activity change, negative = inhibition	Potency
Cc1ccc(N2CCN(S(=O)(=O)c3c(C)nc4scc(C)n4c3=O)CC2)c(C)c1	–	inconclusive: 18.5 µM [inhibitor, single point]
Cc1ccc(N=C2NC(=O)/C(=C\c3ccco3)S2)cc1	–	inconclusive: 13.1 µM [inhibitor, partial curve]
